Experiment: Tape durability test (coefficient of friction, still durability, shuttle durability)
Conditions: for Still durability after heating test / Coefficient of friction after 100 runs after heating test / Shuttle durability after heating: after heating test 10 minutes at 100° C.; for Still durability: decay time of output by −3 dB in paused state; for Shuttle durability: number of shuttles until output reduced by 3 dB

Compound | Still durability after heating test (40° C., 30% RH) [min] | Still durability (40° C., 30% RH) [min] | Coefficient of friction after 100 runs (40° C., 90% RH) | Coefficient of friction after 100 runs after heating test (40° C., 90% RH) | Shuttle durability after heating (40° C., 90% RH) [times] | Shuttle durability (40° C., 90% RH) [times] | Coefficient of friction after 100 runs (−5° C.) | Coefficient of friction after 100 runs after heating test (−5° C.) | Shuttle durability after heating (−5° C.) [times] | Still durability after heating test (−5° C.) [min] | Still durability (−5° C.) [min] | Shuttle durability (−5° C.) [times]
nonafluorobutanesulfonic acid-2-heptadecylimidazole [3A] | >60 | >60 | 0.20 | 0.21 | >200 | >200 | 0.18 | 0.19 | >200 | >60 | >60 | >200
nonafluorobutanesulfonic acid-1-octadecyl-2-undecylimidazolium [Ex. 3A] | >60 | >60 | 0.21 | 0.22 | >200 | >200 | 0.20 | 0.21 | >200 | >60 | >60 | >200
CCCCCCCCCCCCn1ccnc1CCCCCCCCCCC.O=S(=O)(NS(=O)(=O)C(F)(F)C(F)(F)C(F)(F)C(F)(F)F)C(F)(F)C(F)(F)C(F)(F)C(F)(F)F [Ex. 2A, bis(nonafluorobutanesulfonyl)imide-1-dodecyl-2-undecylimidazolium] | >60 | >60 | 0.25 | 0.26 | >200 | >200 | 0.22 | 0.23 | >200 | >60 | >60 | >200
CCCCCCCCCCCCCCCCCC[n+]1ccn(CCCC)c1.O=S1(=O)[N-]S(=O)(=O)C(F)(F)C(F)(F)C1(F)F [2A, hexafluorocyclopropane-1,3-bis(sulfonyl)imide-1-butyl-3-n-octadecylimidazolium] | >60 | >60 | 0.25 | 0.27 | >200 | >200 | 0.23 | 0.25 | >200 | >60 | >60 | >200
nonafluorobutanesulfonic acid-1-dodecyl-2-undecylimidazolium [Ex. 1A] | >60 | >60 | 0.24 | 0.25 | >200 | >200 | 0.23 | 0.24 | >200 | >60 | >60 | >200
CCCCCCCCCCCCCCCCCCn1ccnc1CCCCCCCCCCC.O=S(=O)(NS(=O)(=O)C(F)(F)C(F)(F)C(F)(F)C(F)(F)F)C(F)(F)C(F)(F)C(F)(F)C(F)(F)F [Ex. 4A, bis(nonafluorobutanesulfonyl)imide-1-octadecyl-2-undecylimidazolium] | >60 | >60 | 0.22 | 0.23 | >200 | >200 | 0.21 | 0.22 | >200 | >60 | >60 | >200
CCCCCCCCCCCCCCCCCCn1ccnc1CCCCCCCCCCCCCCCCC.O=S(=O)(O)C(F)(F)C(F)(F)C(F)(F)C(F)(F)F [4A, nonafluorobutanesulfonic acid-1-octadecyl-2-heptadecyimidazole] | >60 | >60 | 0.22 | 0.23 | >200 | >200 | 0.20 | 0.21 | >200 | >60 | >60 | >200

From US20180012623A1, “Ionic Liquid, Lubricant, and Magnetic Recording Medium” (Dexerials Corporation, priority 2016, published 2018)
